Among all 200,000 compounds or so, about 25 (0.01%) were called active. Inconclusive means that the source gave no clear call. Such entries were picked first, then a sample of the others. The call rests on the fitted dose curve; in most records, active means well fitted inhibition curve with a large enough effect in the signal ratio, with a control signal flat (not every such curve was filed as active); inconclusive means small, poorly fitted or top-dose-only effect, or effect the other way, or a change in a side signal; inactive means flat fitted curve, though single readings scatter; the % refers to the signal ratio. Where the call is inconclusive, the potency comes from a doubtful curve fit.
Test: qHTS Assay for Modulators of Lamin A Splicing
Conditions: HeLa LMNA splicing GFP/RFP minigene ratio, 48 h; ratio change, negative = inhibition: at 46.1 µM (top of the series) unless noted
Text: NCGC Assay Overview: Hutchinson-Gilford Progeria Syndrome (HGPS) is a pediatric premature aging disease caused by a spontaneous mutation in the lamin A/C (LMNA) gene. The mutation activates a cryptic splice site in the LMNA pre-mRNA which results in production of a pre-lamin A protein that cannot be processed properly. The mutant protein accumulates in the nucleus and negatively affects numerous cellular functions. Correction of the splicing defect in HGPS patient cells using a targeted oligonucleotide (exo11) leads to reversal of the cellular disease phenotypes. To identify small molecule modulators of aberrant LMNA splicing, a homogenous assay was constructed in HeLa cells that used a GFP containing minigene to report on correction of aberrant splicing in lamin A and a RFP (DsRed2) to report on cell viability, uniformity and nonspecific effects on the assay signal. This assay was adapted to laser-scanning microplate cytometry (Acumen, TTP Labtech) where miniaturization of the assay to a 1,536-well plate format was possible. References: Bowen, W. P.; Wylie, P. G. Application of Laser-Scanning Fluorescence Microplate Cytometry in High Content Screening. Assay Drug Dev Technol 2006;4:209-221. Scaffidi P, Misteli T. Reversal of the cellular phenotype in the premature aging disease Hutchinson-Gilford progeria syndrome. Nat.
NCGC Assay Protocol Summary: Reagents/Controls: Stable clones expressing DsRed2 and lamin A-EGFP were generated by Cell and Molecular Technologies in S3 HeLa cells. HeLa cells were prepared for the assay when they were 70-90% confluent. The cells were counted and resuspended in Opti-MEM I (no phenol red; Gibco), 2% FBS, 1% penicillin/ streptomycin (Gibco) at concentration of 120 cells/uL concentration. The suspension was passed through a Falcon basket filter with pore size 40um (Beckton Dickson). Control titrations: column […] 1536-well plate contained a sixteen point titration (1:2 dilutions) in duplicate of ancitabine (Sigma: A8598) beginning at 40 uM final concentration. Column 2 contained a sixteen point titration (1:2 dilutions) of cycloheximide beginning at 1.4 mM final concentration. Column 3 contained ancitabine at 40 uM and column 4 contained was the vehicle control (0.5% DMSO final concentration). Assay Steps: 5 uL of HeLa cells were plated in Aurora LoBase black clear bottom (cyclic-olefin polymer) 1536-well plates at a final density of 600 cells/well. Controls and library compounds were added with a 1536-well pin array using the Kalypsys pin-tool. The plates were then incubated for 48 hrs in a cell-culture incubator (37 °C; 5% CO2, 98% humidity). Following incubation the plates were read on the Acumen Explorer using the 488 nm laser. Data was collected on objects between 10 and 100 um in size. Cell objects were defined by a 15 um width x 10 um depth filter. The ratio of the total object intensity in PMT1 (500-530 nm emission; GFP) over PMT3 (575-640 nm emission; RFP) was calculated for analysis. Keywords: NIH Roadmap, MLSCN, MLI, MLSMR, qHTS, NCGC, lamin A, Progeria, RNA splicing.
On the % scale 0 is the no-effect control and ±100 the full control effect; potency means the concentration at half of the fitted maximal effect.

Row | Compound | ratio change, negative = inhibition | Potency
1 | N=c1ccn(Cc2ccc(Cl)cc2)cc1 | inconclusive: -35.6% | 
2 | CC(C)OC(=O)CSc1nc2ccccc2s1 | inactive: 9.39% | 
3 | O=[N+]([O-])c1ccc(COc2cccc(CNc3ccc(Br)cc3)c2)cc1 | inconclusive: -33% | 
4 | CC(C)c1ccc(N2C(=O)N(Cc3ccccc3Cl)c3ccccc3S2(=O)=O)cc1 | inactive: -7.57% [at 46 µM] | 
5 | S=C(NCCC1=CCCCC1)Nc1ccccc1 | inconclusive: -29.1% | 
6 | Cc1ccc(/C=C/C(=O)Nc2ncc(C)s2)o1 | inactive: -7.6% | 
7 | COc1ccc2c(c1)C1=NN(/C(C)=C/C(C)=O)C(c3cccc(F)c3)C1CC2 (centres undefined) | inconclusive: -2.48% | 
8 | Cc1ccc(C)c(N2CCN(C(=O)c3cc(S(=O)(=O)N4CCC(C)CC4)cn3C)CC2)c1 |  | inconclusive: 35.5 µM [inhibitor, single point]
9 | COc1ccc2oc(=O)c(-c3cn4c(n3)sc3cc(F)ccc34)cc2c1 | inconclusive: 24.3% [at 46 µM] | 
10 | CCOc1ccc(/C=N/NC(=O)CN2CCCCCCC2)cc1 | inconclusive: 9.75% [at 46 µM] | 
11 | Brc1ccc(-c2nn3c(-c4ccncc4)nnc3s2)o1 | inactive: 0.893% | 
12 | CN(C)[C@@H]1C(=O)C(C(=O)NCN2CCCC2)=C(O)[C@@]2(O)C(=O)C3=C(O)c4c(O)cccc4[C@@](C)(O)C3CC12 (some centres undefined) | inactive: -2.74% | 
13 | CCOc1ccccc1N=CC1=C(O)CC(c2ccccc2)CC1=O (centres undefined) | inactive: -8.88% [at 46 µM] | 
14 | Cc1ccc2nc(CN3CCN(C(=O)Nc4ccc(C)c(F)c4)CC3)oc2c1 | inconclusive: -12.2% [at 46 µM] | 
15 | O=C(O)c1ccccc1C(=O)NNc1ccc(F)cc1F | inactive: 8.27% [at 46 µM] | 
16 | CCCCCC(=O)NNC(=S)NC(=O)c1ccc([N+](=O)[O-])cc1 | inconclusive: -39.3% [at 46 µM] | 
17 | CCCCN(C)CCCNC(=O)c1cc(-c2cccnc2)nc2ccccc12 | inconclusive: 11.4% [at 46 µM] | 
18 | CC(Oc1ccc(-n2cnnn2)cc1)C(=O)O (centres undefined) | inactive: 26.8% [at 46 µM] | 
19 | CC(C)N(Cc1nc(-c2ccc(Cl)cc2)no1)C(=O)c1cccs1 |  | inconclusive: 20 µM [falling, single point]
20 | [O-]/[N+](=C\c1ccc(OC(F)F)cc1)c1ccccc1 | inactive: -3.86% | 
21 | CCCCn1c(SCC(=O)N2CCC(C)CC2)nc2ccsc2c1=O |  | inconclusive: 31.6 µM [falling, single point]
22 | CCCNC(=O)Cn1nc(-c2ccc(OC)cc2)c2cnc3ccc(F)cc3c21 | inactive: -12.9% [at 46 µM] | 
23 | C(=C/c1nccc2c1[nH]c1ccccc12)/c1ccc2c(c1)OCO2 | inconclusive: 39.8% [at 46 µM] | 

Row | Compound | ratio change, negative = inhibition | Potency
24 | CC(=O)Nc1c(C(=O)O)oc2ccc(Cl)cc12 | inconclusive: 8.4% | 
25 | Cc1nnc(N/N=C/c2ccc([N+](=O)[O-])cc2)n1N | inconclusive: 48.6% [at 46 µM] | 
26 | CCC(=O)NC(=S)Nc1ccc(NC(=O)c2ccco2)cc1 | inconclusive: 20.9% [at 46 µM] | 
27 | CCC(C)NC(=O)COc1ccc(S(=O)(=O)N2CCOCC2)cc1 (centres undefined) | inactive: 4.83% | 
28 | CC1(C)Cc2ccccc2-c2n[nH]c(=S)n21 |  | inconclusive: 35.5 µM [rising, single point]
29 | CC(=O)Nc1cc(OC(=O)c2ccco2)cc(OC(=O)c2ccco2)c1 | inactive: -1.54% | 
30 | CCOC(=O)N1CCN(Cc2ccc(F)cc2F)CC1 | inactive: 4.89% | 
31 | C=CCn1c(SCC(=O)c2cc(C)n(C(C)COC)c2C)nc2sc(C)c(C)c2c1=O (centres undefined) |  | inconclusive: 31.6 µM [falling, single point]
32 | CC1CCCC(C)N1NC(=O)c1ccc(Cl)c(S(N)(=O)=O)c1 (centres undefined) | inconclusive: 30.1% [at 46 µM] | 
33 | CCOC(=O)c1cc(-c2ccc(C)cc2)n(CCCC(=O)Nc2cc(C)ccc2C)c1 | inactive: 17.5% [at 46 µM] | 
34 | CCCC/C(C)=N/NC(=O)CN(c1ccc(Br)cc1)S(=O)(=O)c1ccccc1 | inconclusive: 4.17% | 
35 | CCOc1ccccc1NC(=O)c1c2c(nc3ccccc13)C(=O)N(C1CCCCC1)C2 | inconclusive: -32% [at 46 µM] | 
36 | CCc1ccc(/C=C2/C(=O)N(C)C(=S)N2CC(=O)OC)s1 | inconclusive: 10.8% [at 46 µM] | 
37 | COc1ccc(CNC(=O)c2ccc3c(c2)nc2n3CCCCC2)cc1 | inconclusive: -4.86% [at 46 µM] | 
38 | CCCCc1nnc(NC(=O)C2CC(=O)N(c3ccc(C)cc3)C2)s1 (centres undefined) | inconclusive: 13.8% [at 46 µM] | 
39 | CC(C)c1ccc(/C=N/N2CCCCC2)cc1 | inconclusive: -17.5% [at 46 µM] | 
40 | Nc1nnc(-c2cccc(Cl)c2Cl)c(N)n1 | inconclusive: -6.45% | 
41 | COc1ccc(/C=N/S(=O)(=O)CCc2ccccc2)c(OC)c1 | inconclusive: -14.4% | 
42 | O=C(NCc1ccccc1)c1c(O)c2cccc3c2n(c1=O)CCC3 | inactive: 5.19% | 
43 | CCOC(=O)c1cnc2cc(C)nn2c1-c1ccccc1 | inactive: 10.9% | 
44 | O=C(CC(Nc1ccccc1Cl)C(=O)OCC(=O)c1cccs1)c1ccccc1 (centres undefined) | inactive: -24.2% | 
45 | O=C1CCC([N+](=O)[O-])C(c2cc3c(cc2Cl)OCO3)N1 (centres undefined) | inactive: 19.3% [at 46 µM] | 
46 | COc1cccc(Nc2nc(-c3sc(NC(=O)c4ccccc4)nc3C)cs2)c1 | inconclusive: 42.4% | 

Row | Compound | ratio change, negative = inhibition | Potency
47 | COC(=O)c1c(C#N)c(N)nc2c1CCCC2 | inconclusive: 7.24% | 
48 | CCCCS/C(N)=N/N=C/c1cc(C)ccc1O | inconclusive: -6.63% | 
49 | NC(=O)c1ccc(-n2nnnc2Oc2ccccc2C(=O)N2CCOCC2)cc1 | inactive: 17.8% | 
50 | Cc1ccccc1NS(=O)(=O)c1ccc2[nH]cc(C(=O)NCCc3ccccc3)c(=O)c2c1 | inconclusive: -13.9% [at 46 µM] | 
51 | COC(=O)c1cnc(N2CCN(c3ccc(OC)cc3)CC2)c2ccccc12 | inconclusive: -7.39% [at 46 µM] | 
52 | O=C(NC1CCCCC1)N1CCCCCC1 | inactive: -0.974% | 
53 | N#Cc1ccc(-c2ccco2)nc1SCc1ccccc1 | inactive: 17.8% | 
54 | Cc1nn(Cc2c(Cl)cccc2Cl)c(C)c1NC(=O)/C=C/c1cnn(C)c1C |  | inconclusive: 25.1 µM [inhibitor, single point]
55 | CC(=O)c1cccc(NS(=O)(=O)c2ccc3[nH]c4c(c3c2)CCCCC4)c1 | inactive: -23.8% [at 46 µM] | 
56 | CC(C)C(Sc1nc(-c2ccccc2)cc(-c2ccccc2)c1C#N)C(=O)O (centres undefined) |  | inconclusive: 35.5 µM [cytotoxic, single point]
57 | NC(=S)NNc1ccnc2cc(Cl)ccc12 | inconclusive: -21.8% [at 46 µM] | 
58 | COc1ccc(N(C(C)C(=O)N/N=C/c2ccc(OC(C)C)cc2)S(C)(=O)=O)cc1 (centres undefined) | inconclusive: 34.6% | 
59 | N#Cc1ccc(C(=O)Nc2nnc(-c3ccccn3)o2)cc1 | inactive: -21.4% | 
60 | O=C(Nc1ccccc1C(F)(F)F)c1ncoc1-c1ccco1 | inconclusive: -10.4% [at 46 µM] | 
61 | O=C(Cc1ccc([N+](=O)[O-])cc1)Nc1nnc(C2CC2)s1 | inconclusive: -1.65% | 
62 | CC(C)Cc1cc(-c2ccco2)c(C#N)c(N)n1 | inconclusive: 34% | 
63 | CC1CCCC(NC(=S)NC(=O)c2cncc(Br)c2)C1C (centres undefined) | inconclusive: 3.61% | 
64 | CCOC(=O)C(C(=O)NCCCN1CCOCC1)C1CCCCC1 (centres undefined) | inactive: 7.24% | 
65 | CCCOc1ccc(C2c3c(oc4ccccc4c3=O)C(=O)N2CCN(CC)CC)cc1OC (centres undefined) | inactive: 0.426% | 
66 | O=C(COc1ccc(Br)cc1Br)NC(=S)Nc1cccc(CO)c1 | inconclusive: 7.89% | 
67 | COc1ccccc1-n1c(N)c(C(N)=O)sc1=S | inactive: -3.86% | 
68 | CCCN(C(=O)c1cn(C)c(=O)c2cc(OC)c(OC)cc12)c1ccc(CC)cc1 | inactive: 20.5% [at 46 µM] | 
69 | CCN1C(=O)CC(N2CCN(c3ccc(Cl)cc3)CC2)C1=O (centres undefined) | inconclusive: 7.72% | 

Row | Compound | ratio change, negative = inhibition | Potency
70 | CC(C(=O)Nc1cccc([N+](=O)[O-])c1)N1CCN(C/C=C/c2ccccc2)CC1 (centres undefined) | inconclusive: -11.7% | 
71 | CCOc1ccccc1NC(=O)C1CCN(S(=O)(=O)c2ccc(OC)c(OC)c2)CC1 | inconclusive: 4.87% | 
72 | FC(F)(F)c1cnc(C(c2ccccn2)c2ncn[nH]2)c(Cl)c1 (centres undefined) | inconclusive: -17.3% [at 46 µM] | 
73 | COc1ccc(NC(=O)CN2CCN(CC(=O)Nc3ccccc3F)CC2)c(OC)c1 | inactive | 
74 | NC(=S)N/N=C/c1coc2c(ccc3ccccc32)c1=O | inconclusive: 5.56% | 
75 | COc1ccc(CNS(=O)(=O)c2cc3c(cc2Cl)N(C(C)=O)CCO3)cc1 | inconclusive: -8.5% [at 46 µM] | 
76 | Nc1nc(-c2ccc([N+](=O)[O-])cc2)cs1 | inactive: -4.46% | 
77 | COc1cc(NC(=O)CN2CCN(S(=O)(=O)c3ccc(Br)cc3)CC2)cc(OC)c1 | inconclusive: 1.38% [at 46 µM] | 
78 | O=C(NNC(=O)C1CC1c1ccccc1)Nc1ccccc1 (centres undefined) | inactive: -8.68% | 
79 | Cc1cccc(C2CN(C)CCc3c2cc(O)c(O)c3Cl)c1 (centres undefined) | inconclusive: -73.9% | 
80 | O=C(Cn1c(=O)c(=O)n(Cc2ccccc2)c2ccc(Cl)cc21)Nc1cc(F)ccc1F | inactive: -8.22% [at 46 µM] | 
81 | COc1ccc(Nc2oc(-c3ccc(F)cc3)nc2C#N)cc1 | inconclusive: 7.04% [at 46 µM] | 
82 | CCN(CC)C(=O)c1ccccc1NC(=O)CN1C(=O)c2ccccc2C1=O | inconclusive: -10.6% [at 46 µM] | 
83 | N#Cc1nc(-c2ccco2)oc1N1CCN(C(c2ccccc2)c2ccccc2)CC1 | inactive: -3.52% | 
84 | Cc1ccc(C(=O)/C=C/Nc2cccc([N+](=O)[O-])c2)o1 | inactive: -9.17% | 
85 | c1ccc(-n2nnnc2SCc2cccc3nsnc23)cc1 | inconclusive: 4.96% | 
86 | CN(C)CCCn1c(SCC(=O)N2CC(=O)Nc3ccccc32)nc2ccccc2c1=O | inconclusive: -15.9% [at 46 µM] | 
87 | COc1cccc(-c2[nH]nc3c2C(c2ccsc2)C(C#N)=C(N)O3)c1 (centres undefined) | inactive: 15.4% | 
88 | CC(C)Cn1c(-c2nn(C)cc2Cl)n[nH]c1=S | inconclusive: 9.51% | 
89 | Cn1c(=O)n(Cc2ccc(Cl)cc2)c(=O)c2c1nc1n2CCN1Cc1ccco1 | inconclusive: -24.8% | 
